Results on 2 sequences are retold here after patent US20190032060.

Chains of the proteins cited; added tags and fusions are not shown. A line that says so, or that is headed by a name, gives the form on record, which may keep a tag or linker.
Insulin receptor, overexpressed on Rat-1 fibroblasts (Rat-1/hIR) (Homo sapiens), one chain, as listed by the source, chain 2 of 2: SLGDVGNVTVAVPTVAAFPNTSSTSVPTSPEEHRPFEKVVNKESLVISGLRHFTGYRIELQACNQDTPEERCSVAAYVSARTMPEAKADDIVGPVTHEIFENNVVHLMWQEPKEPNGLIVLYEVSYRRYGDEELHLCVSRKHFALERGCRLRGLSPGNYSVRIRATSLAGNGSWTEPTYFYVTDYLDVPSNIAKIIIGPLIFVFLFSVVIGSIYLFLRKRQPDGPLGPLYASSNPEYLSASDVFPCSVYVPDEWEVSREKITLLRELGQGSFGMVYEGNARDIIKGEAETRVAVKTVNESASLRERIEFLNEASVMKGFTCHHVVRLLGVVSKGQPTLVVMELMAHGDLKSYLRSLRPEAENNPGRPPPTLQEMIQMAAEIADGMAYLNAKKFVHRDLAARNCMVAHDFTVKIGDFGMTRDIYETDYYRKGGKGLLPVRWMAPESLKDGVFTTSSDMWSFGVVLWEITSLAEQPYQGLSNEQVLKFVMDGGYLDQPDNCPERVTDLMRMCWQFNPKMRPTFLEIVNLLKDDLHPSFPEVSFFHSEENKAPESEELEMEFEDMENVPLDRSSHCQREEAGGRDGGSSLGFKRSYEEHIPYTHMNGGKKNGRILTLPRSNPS

For part of these data: A negative result means that nothing was seen under these conditions. For part of these data: Results from cells or extracts need not show a direct contact.

The test system of series [1] is Insulin-like growth factor 1 receptor (IGF-1R). The series is described as follows: filter binding. As to conditions: specificity control, purified recombinant protein, single-stranded DNA.
The subject of series [2] is Insulin receptor, overexpressed on Rat-1 fibroblasts (Rat-1/hIR) (Homo sapiens). Kind of series: flow cytometry. Particulars: 6 Nap-dU stated (n positions) [n positions 3,4,10,14,16,20,24 = modified dU]; increased FITC-insulin binding (positive cooperativity), 0.02-1 uM; agonist of Y1150/Y1151 phosphorylation (FIG. 2d); protein on the cell surface; single-stranded DNA; variant of IR-A62F.

Regarding CATTACGCATGAGTCTAGATCCGTCAG [IR-A62], the binding result was “no binding” in series [1] (6 Nap-dU stated (n positions) [n positions 3,4,10,14,16,20,24 = modified dU], variant of IR-A62F) and “binds” in series [2].

As to “CGCCTGGTGTTAAGACAACCTCTAGGTCAGGCG [IR-A48]”, the binding result in series [1] (6 Nap-dU (n positions) [n positions 8,10,11,21,23,27 = modified dU], no IGF-1R phosphorylation either, variant of IR-A48F) is “no binding”.
